Experimental data from patent publication US9888688B2, “Tetrazolinone compounds and applications thereof” (Sumitomo Chemical Company, Limited, priority 2013, dated 2018).
Some entries share one result that the patent states for a list of compounds.

Experiments:
Assay type in all cases: in vivo
[1] = test system: kidney bean stem rot fungus (Sclerotinia sclerotiorum); experiment: Kidney bean stem rot control test, foliar spray on kidney bean (Test Examples 5, 22, 23); details: kidney bean NAGAUZURA NATANE, four days after inoculation
[2] = test system: barley net blotch fungus (Pyrenophora teres); experiment: Barley net blotch control test, foliar spray on barley (Test Examples 4, 16, 17, 18); details: barley NISHINOHOSHI, inoculated after 2 days
[3] = test system: wheat leaf blotch fungus (Septoria tritici); experiment: Wheat leaf blotch control test, spray after inoculation (Test Example 8); details: 200 ppm foliar spray 3 days after inoculation, wheat APOGEE
[4] = test system: barley scald fungus (Rhynchosporium secalis); experiment: Barley scald control test, foliar spray on barley (Test Examples 20, 21); details: 200 ppm foliar spray, barley NISHINOHOSHI, inoculated after 2 days
[5] = test system: cucumber anthracnose fungus (Colletotrichum lagenarium); experiment: Cucumber anthracnose control test (Test Examples 28, 29); details: cucumber SAGAMI HANJIRO, inoculated after one day
[6] = test system: soybean rust fungus (Phakopsora pachyrhizi); experiment: Soybean rust control test, foliar spray on soybean (Test Example 19); details: 200 ppm foliar spray, soybean KUROSENGOKU, inoculated after 2 days
[7] = test system: wheat leaf blotch fungus (Septoria tritici); experiment: Wheat leaf blotch control test, spray before inoculation (Test Examples 6, 9, 10, Comparative Test Example); details: wheat APOGEE, inoculated after 4 days
[8] = test system: cucumber corynespora leaf spot fungus (Corynespora cassicola); experiment: Cucumber corynespora leaf spot control test (Test Examples 26, 27); details: 200 ppm foliar spray, cucumber SAGAMI HANJIRO, inoculated after one day, 7 days

Measured: area of lesion spots relative to that on an untreated plant

CCc1cccc(-n2nnn(C)c2=O)c1COc1ccc(-c2cccc(C#N)n2)cc1C [Present Compound 115, 1-{3-ethyl-2-[2-methyl-4-(6-cyanopyridin-3-yl)-phenoxymethyl]-phenyl}-4-methyl-1,4-dihydrotetrazol-5-one]
≤ 30%: [1]; 500 ppm foliar spray | [2]; 200 ppm foliar spray | [2]; 500 ppm foliar spray | [3] | [4] | [5]; 200 ppm foliar spray | [6] | [7]; 200 ppm foliar spray | [7]; 500 ppm foliar spray

COc1cccc(-n2nnn(C)c2=O)c1COc1ccc(-c2cc(Cl)ccn2)cc1C [Present Compound 13]
≤ 30%: [1]; 200 ppm foliar spray | [1]; 500 ppm foliar spray | [2]; 200 ppm foliar spray | [2]; 500 ppm foliar spray | [3] | [8] | [4] | [6] | [7]; 200 ppm foliar spray | [7]; 500 ppm foliar spray

Cc1cc(-c2cccc(C#N)n2)ccc1OCc1c(C2CC2)cccc1-n1nnn(C)c1=O [Present Compound 116]
≤ 30%: [1]; 500 ppm foliar spray | [2]; 200 ppm foliar spray | [2]; 500 ppm foliar spray | [3] | [4] | [5]; 200 ppm foliar spray | [6] | [7]; 200 ppm foliar spray | [7]; 500 ppm foliar spray

Cc1cc(OCc2c(C)cccc2-n2nnn(C)c2=O)c(Cl)cc1-c1ncc(Cl)cn1 [Present Compound 196]
≤ 30%: [1]; 200 ppm foliar spray | [1]; 500 ppm foliar spray | [2]; 200 ppm foliar spray | [2]; 500 ppm foliar spray | [3] | [4] | [5]; 200 ppm foliar spray | [6] | [7]; 200 ppm foliar spray | [7]; 500 ppm foliar spray

Cc1cc(-c2cccc(C(F)(F)F)n2)c(C)cc1OCc1c(C)cccc1-n1nnn(C)c1=O [Present Compound 169]
≤ 30%: [1]; 200 ppm foliar spray | [1]; 500 ppm foliar spray | [2]; 200 ppm foliar spray | [2]; 500 ppm foliar spray | [3] | [4] | [5]; 200 ppm foliar spray | [6] | [7]; 200 ppm foliar spray | [7]; 500 ppm foliar spray

Cc1cc(-c2cnccc2C)ccc1OCc1c(C)cccc1-n1nnn(C)c1=O [Present Compound 71]
≤ 30%: [1]; 200 ppm foliar spray | [2]; 200 ppm foliar spray | [3] | [4] | [5]; 50 ppm foliar spray | [6] | [7]; 200 ppm foliar spray
